Test results as given in patent US20250243190A1, “NEW DEUTERATED RORGAMMA/RORGAMMAT INVERSE AGONISTS” (IMMUNIC AG, priority 2022, published 2025).
The name of at least one read-out is uncertain.

Experiment: Rat pharmacokinetics, oral or intravenous cassette dosing
Format: in vivo, rats (strain Wistar RjHAN)
Settings: iv 1 mg/kg
Procedure: The pharmacokinetics of the deuterated compounds of the present invention was evaluated in 3 male and 3 female rats (strain Wistar RjHAN, 7-8 week old) after oral or intravenous cassette dosing to asses the oral bioavailability. Rats are provided with a catheter in the jugular vein (2-3 days prior to blood sampling). At each designated time point (1, 2, 4, 8 and 24 h after dosing), 100 μL blood were collected into Li-heparin tubes, stored on ice until centrifugation (10 minutes at 3000 g, 4° C.) and plasma was prepared within 45 min after collection, frozen at −20° C. and stored at this temperature until processed for LC-MS analysis.

For [2H]C([2H])(CC(C)(C)O)n1ncc(-c2onc(-c3c(F)cccc3Cl)c2-c2ncccn2)c1C(F)(F)F [Example 3, 4-(4-(3-(2-Chloro-6-fluorophenyl)-4-(pyrimidin-2-yl)isoxazol-5-yl)-5-(trifluoromethyl)-1H-pyrazol-1-yl)-2-methylbutan-4,4-d2-2-ol], the Vz/f (female rats) was 0.003 L/kg and the Vz/f (male rats) was 0.006 L/kg.
